Measured values taken from PubChem BioAssay AID493014 (National Center for Advancing Translational Sciences (NCATS), 2011).
Among all 340,000 compounds or so, about 170 (0.05%) were called active. The shares of active, inactive and inconclusive entries below differ from those in the screen. Calls follow the shape of the dose curve; as a rule, active = well fitted inhibition curve with a large enough effect in the signal ratio, with a control signal flat (not every such curve was filed as active); inconclusive = small, poorly fitted or top-dose-only effect, or effect the other way, or a change in a side signal; inactive = flat fitted curve, though single readings scatter; the % refers to the signal ratio.

test: qHTS Assay to Find Inhibitors of Chronic Active B-Cell Receptor Signaling; conditions: ABC-DLBCL IkBa-CBG/CBR reporter, luminescence ratio (green luciferase fused to IkBa over red control in TMD8 lymphoma cells), 4 h; activity change, negative = inhibition: at 46.1 µM (top of the series);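 also: plate controls were basal doxycycline-induced cells for no effect and cells given 10 µM MG132 for full effect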
Excerpt: NIH Molecular Libraries Probe Production Network [MLPCN] NIH Chemical Genomics Center [NCGC] MLPCN Grant: 1 R03 DA031086-01A1 PI Name: Dr. R. Eric Davis NCGC Assay Overview: Diffuse large B-cell lymphoma (DLBCL) is the most common category of non-Hodgkin lymphoma, with ~20,000 new cases per year in the United States. DLBCL should be regarded as a collection of different neoplasms. Microarray gene expression analysis has defined two principal types of DLBCL, named for their similarity to normal B cell stages or activation states: a germinal center B-cell (GCB) type, and an activated B-cell (ABC) type. […] Following the addition of doxycycline to induce expression of the luciferases, the green luminescence in control cultures rises only slowly because the CBG fusion partner IkappaBalpha is targeted by IKK activity for rapid degradation. In contrast, green luminescence rises rapidly in the presence of proteasome inhibitors or IKK inhibitors. The rise in red luminescence of CBR is not affected by proteasome or IKK inhibitors, and serves as normalization for cell number and nonspecific effects. […]
NCGC Assay Protocol Summary: Cells were seeded in 1536-well plates at 5000 cells/4uL in IMDM medium containing 0.5% FBS, w/o phenol red, 1% penicillin/streptomycin. […] The plates were measured on a ViewLux plate reader for green luminescence (540/20 nm filter) and red luminescence (618/8 nm filter). […]

Row | Structure (SMILES) | activity change, negative = inhibition
1 | CCCCNS(=O)(=O)CCNCc1ccccc1OC | inconclusive: -1.02%
